This is an account of results in PubChem BioAssay AID2685 (National Center for Advancing Translational Sciences (NCATS), 2010).

This is one part of the list. Shown are side measurements of this screen, not its main read-out; they come without a call. Compounds called inactive in the main read-out are mostly missing here. Words in brackets tell the shape of the fitted curve; partial curves, single points and poor fits give uncertain potencies.

The test can be described thus: qHTS Assay for Lipid Storage Modulators in Drosophila S3 Cells.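 For cell number change: cells counted by Cell Tracker Red CMTPX staining in the red channel.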 The following applies: BODIPY lipid droplet fluorescence, 18-24 h; for cell number change: measured here: cell count max response, cells fed with added oleic acid. Put shortly: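 Laser-scanning cytometry quantifies lipid droplet accumulation (500–530 nm total intensity; droplet/cell object ratio) in oleic acid-fed (400 uM added) Drosophila S3 cells treated with a concentration series. 20 uM Triacsin C defined 100% inhibition.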
(In general: Quantitative high-throughput screening tests each substance at several concentrations.)

Where [1] appears, read: measured here: lipid fluorescence (Fed channel) AC50, cells fed with added oleic acid.
[2] abbreviates: measured here: cell number channel AC50, cells fed with added oleic acid.

For the compound `CCN1CC(CN(C)Cc2nc(-c3ccc(C(F)(F)F)cc3)no2)CC1=O` (configuration not stated), the cell number change is -26.5%. In addition, the AC50 (in general, the concentration at which the activity in the assay is half-maximal) under setting [1] was 29.1 µM [falling, single point].

`O=C(Nc1ccccc1N1CCCCC1)C1CC(=O)N(c2ccccc2F)C1` (configuration not stated): the cell number change was -13.2%.

Regarding `O=C(Cc1ccc(F)cc1)Nc1nccs1`, the cell number change was -9.89%. Moreover, the AC50 under setting [1] is 29.1 µM [falling, single point].

Regarding `Cc1nc(-c2ccc(NC(=O)C3CC3)cc2)cs1`, the cell number change worked out at 32.5%.

For the compound `O=C(Nc1ccc(Cc2ccncc2)cc1)c1ccc(N2CCOCC2)c([N+](=O)[O-])c1`, the cell number change is 57.5%. Moreover, the AC50 under setting [2] is 32.6 µM [rising, single point]. Moreover, the AC50 under setting [1] is 29.1 µM [rising, single point].

Turning to `CS(=O)(=O)c1ccc(Cl)c(NC(=O)COC(=O)c2c(Cl)cccc2Cl)c1`, the cell number change was -27.6%.

Turning to `CN1C(C(=O)NCc2cccc(C(F)(F)F)c2)CC2Cn3c(nc4cc5ccccc5cc43)C21` (configuration not stated), the cell number change is 28.4%. Further, the AC50 under setting [1] is 8.2 µM [rising, partial curve].

Take `COc1ccc(S(=O)(=O)N2CCN(C(=O)c3c(C)nn(-c4ccccc4)c3C)CC2)cc1`: the cell number change amounted to 13.7%. Besides, under setting [1], the AC50 is 7.31 µM [falling, partial curve, poor fit].

Turning to `O=C(Nc1ccc(C(=O)O)cc1)/C(=C/c1ccc2c(c1)OCO2)NC(=O)c1cccc(Br)c1`, the cell number change turned out to be 31%. Moreover, the AC50 under setting [2] is 0.00461 µM [rising, full curve, poor fit]. For the same compound, the AC50 under setting [1] is 1.3 µM [rising, partial curve].

In the case of `Cc1c(N(C)S(=O)(=O)c2cc(C(=O)NCC3CCCO3)ccc2Cl)c(=O)n(-c2ccccc2)n1C` (configuration not stated), the cell number change is -30.7%. For the same compound, under setting [2], the AC50 was 29.1 µM [falling, single point]. The AC50 under setting [1] was 29.1 µM [falling, single point].

Take `CCOC(=O)c1c(-c2cccc(C)c2)csc1NC(=O)C1CC=CCC1C(=O)O` (configuration not stated): the cell number change is -17.1%. In addition, the AC50 under setting [1] was 1.46 µM [rising, partial curve].

`CC(=O)OC(C)[C@H]1CC[C@H]2[C@@H]3CC[C@H]4C[C@@H](OC(C)=O)CC[C@]4(C)C3=CC[C@]12C` (some centres not stated): the cell number change is 21.7%.

For `COc1ccc(OC)c(NC(=O)Cn2cc(C(=O)c3ccco3)c3ccccc32)c1`, the cell number change is 12.4%. Besides, the AC50 under setting [1] was 2.06 µM [rising, full curve].

With `CCO[C@@H]1c2c(ccc3ccc(=O)oc23)OC(C)(C)[C@H]1O`, the cell number change came out at 5.29%. Further, the AC50 under setting [1] is 20.6 µM [rising, single point].

As to `COc1cc2c(cc1OC)CN(C(=O)CN1C(=O)NC3(CCC(C)CC3)C1=O)CC2` (configuration not stated), the cell number change is -17%. The AC50 under setting [2] was 0.291 µM [falling, full curve, poor fit].

Regarding `O=C(CSc1nnc(C2CC2)n1-c1ccccc1)N1CCNC1=O`, the cell number change was -9.65%. Further, under setting [1], the concentration at half-maximal activity (AC50) was 6.51 µM [rising, single point].

On to `C/C(=N\NC(=O)c1cccnc1)c1cc(C)oc1C`, for which the cell number change turned out to be 13.4%. Also, the AC50 under setting [2] is 0.13 µM [rising, full curve, poor fit]. Further, the AC50 under setting [1] is 0.116 µM [rising, partial curve, poor fit].

On to `COc1ccc(CC(=O)OCN2C(=O)c3ccccc3C2=O)cc1OC`, for which the cell number change turned out to be 9.83%.

As for `COn1c(SCc2ccc(C)cc2C)nc2ccccc2c1=O`, the cell number change was 14.3%. Under setting [1], the AC50 was 20.6 µM [rising, single point].

With `COc1ccccc1-n1c(SCC(=O)O)nc2c(sc(=S)n2-c2ccc(Cl)c(C)c2)c1=O`, the cell number change came out at 19.7%. In addition, the AC50 under setting [2] is 0.13 µM [rising, full curve, poor fit].

`COc1ccc(CCNC(=O)Cc2c(Cl)cccc2Cl)cc1`: the AC50 is 6.51 µM [rising, single point] under setting [2] and 6.51 µM [rising, single point] under setting [1].

`CCCNC(=O)C(Cc1cccc(C#N)c1)NC(=O)c1ccc(C#N)cc1` (configuration not stated): the cell number change was found to be 16.3%. In addition, the AC50 under setting [1] was 32.6 µM [rising, single point].

Turning to `Cn1c(=O)[nH]c(=O)c2c1nc(NCCc1ccccc1)n2CC(O)COc1ccccc1` (configuration not stated), the cell number change is -25%.

For `N=c1nc(N)nc2n1NC(c1ccc(F)cc1)=CS2`, the cell number change was -13.1%. Under setting [1], the AC50 is 16.4 µM [falling, partial curve].

Consider `CCCN1CCN(CC(=O)NCC(=O)Nc2cccc(C)c2C)CC1`, for which the cell number change was -16.5%.

On to `O=C(O)CCCC(=O)NCCc1ccncc1`, for which the cell number change is -181%. Also, the AC50 under setting [2] is 18.4 µM [falling, partial curve]. In addition, under setting [1], the AC50 was 0.58 µM [falling, single point].

For `O=C(NCC(=O)N(CC1CCCO1)C1(C(=O)NC2CCCC2)CCCCC1)c1ccccc1` (configuration not stated), the cell number change was -14.6%.

For the compound `CSc1ccc(CN2CCN(CC=C(C)C)C(CCO)C2)cc1` (configuration not stated), the cell number change is -41.7%. Besides, the AC50 under setting [2] was 18.4 µM [falling, single point]. In addition, the AC50 under setting [1] was 29.1 µM [falling, single point].

As to `Cc1csc(SCC(=O)NC(=O)NC2CCCC2)n1`, the cell number change worked out at 28%. Also, the AC50 under setting [1] was 0.231 µM [rising, full curve, poor fit].

On to `CCN(CC)S(=O)(=O)c1ccc2[nH]c(=O)c3ccccc3c2c1`, for which the cell number change was -17%. Moreover, under setting [1], the AC50 was 13 µM [rising, partial curve].

Turning to `COCCCN1C(=O)c2ccc(C(=O)Nc3ccc(OC)cc3)cc2C1=O`, the cell number change was 22.1%.

With `CCCCCCSc1cc(-c2nc3ccc(Cl)cn3c2NC2CCCCC2)ccc1OC`, the cell number change is -8.74%. Also, under setting [1], the AC50 was 14.6 µM [rising, partial curve].

Regarding `CCN(C(=O)COC(=O)c1oc2ccccc2c1C)c1c(N)n(Cc2ccccc2)c(=O)[nH]c1=O`, the cell number change is -11.1%. Moreover, the AC50 under setting [1] was 29.1 µM [falling, single point].

On to `CCCn1nc(C(=O)NC2CCCCCC2)c2ccccc2c1=O`, for which the cell number change was -42.7%. Further, the AC50 under setting [2] is 18.4 µM [falling, single point]. Further, the AC50 under setting [1] was 16.4 µM [falling, single point].

For the compound `CCN(CCNC(=O)c1ccc(C#N)cc1)c1cccc(C)c1`, the cell number change was -14.5%. Besides, under setting [1], the AC50 was 7.08 µM [rising, partial curve].

Take `Cc1ccc(NC(=O)c2sccc2C)nc1`: the cell number change was -2.93%. Also, the AC50 under setting [1] was 29.1 µM [rising, single point].

As for `COc1ccc(NC(=O)c2sccc2-n2cccc2)cc1`, the cell number change stood at 65.2%.

On to `O=C(COc1ccc(Br)cc1)Nc1ccccc1N1CCCC1`, for which the AC50 under setting [1] is 1.03 µM [falling, single point].

Take `O=S(=O)(c1ccc(Br)s1)N1CCC2(CC1)OCCO2`: the cell number change stood at 10.5%. Also, the concentration at half-maximal activity (AC50) under setting [1] was 2.06 µM [falling, single point].

With `Cc1c(C#N)c2ccccc2n1CC(=O)NC(C)c1ccccc1` (configuration not stated), the cell number change was determined as 23.7%. Moreover, the AC50 under setting [1] was 5.17 µM [rising, partial curve].

For the compound `COC(=O)c1sc(NC(=O)C(C)c2ccccc2)nc1C` (configuration not stated), the cell number change came to 12.3%. In addition, the AC50 under setting [1] was 29.1 µM [rising, partial curve, poor fit].

On to `COc1cc(C2C3=C(Nc4ncnn42)c2ccccc2CC3)cc(OC)c1OC` (configuration not stated), for which the cell number change is -26.2%. In addition, the AC50 under setting [1] is 4.61 µM [falling, full curve, poor fit].

With `O=C(COc1ccc(=O)n(-c2ccccc2)n1)Nc1ccccc1`, the AC50 under setting [1] is 18.4 µM [rising, single point].

Regarding `Cc1ccc(Oc2ccccc2/C=C/C(=O)O)cc1`, the cell number change was -8.7%. The AC50 under setting [2] was 3.66 µM [falling, single point]. For the same compound, the AC50 under setting [1] is 18.4 µM [falling, partial curve].

Regarding `COc1cccc(OC)c1-c1nn(-c2ncc(C(F)(F)F)cc2Cl)c(=O)o1`, under setting [1], the AC50 is 32.6 µM [rising, single point].

For `COCCCNc1nc2ccccc2nc1NS(=O)(=O)c1cccc(C)c1`, the cell number change was 13.9%. Besides, the AC50 under setting [1] is 13 µM [rising, partial curve, poor fit].

As for `Cc1ccc(S(=O)(=O)N2CCN(Cc3cc4c(cc3Br)OCCO4)CC2)cc1`, the cell number change was found to be 10.1%. Also, under setting [1], the AC50 was 32.6 µM [rising, single point].

In the case of `Cc1cc(NC(=O)c2cnn3c(C(F)(F)F)cc(-c4ccccc4)nc23)no1`, the cell number change is -17.6%. Under setting [1], the AC50 is 29.1 µM [falling, single point].

For `COc1cc(CNCCCN2CCOCC2)ccc1OCC(=O)NC(C)(C)C`, the cell number change was determined as 32.3%. Under setting [2], the concentration at half-maximal activity (AC50) was 29.1 µM [rising, single point].

Regarding `O=C(CN(C(=O)c1csnn1)c1cccc(F)c1)NC1CCCC1`, the cell number change came to 13.9%.

Regarding `C[C@@H](NC(=O)c1[nH]cnc1C(=O)Nc1ccccc1)c1ccccc1`, the cell number change is -62.7%. The AC50 under setting [2] is 4.61 µM [falling, single point]. Moreover, under setting [1], the AC50 was 25.9 µM [falling, single point].

Consider `CN(C)S(=O)(=O)c1cc(NC(=O)CSc2nn(-c3ccc(Cl)cc3)c(=S)s2)ccc1Cl`, for which the cell number change is -33.3%. In addition, the AC50 under setting [2] was 0.13 µM [falling, full curve, poor fit].

In the case of `Cc1ccc(NC(=O)C2CCN(S(C)(=O)=O)CC2)c(C)c1`, the cell number change is 4.23%. In addition, under setting [1], the AC50 is 3.26 µM [rising, full curve].

Regarding `CC1(C)CC(NC(=O)c2cccc3ccccc23)CC(C)(C)N1`, the cell number change came to 5.89%.

Turning to `O=c1[nH]c(CN2CCc3ccccc3C2)nc2ccccc12`, the cell number change is 1.88%.

Take `Fc1ccc(Nc2nnc(C(F)(F)F)s2)cc1Cl`: the cell number change is -66.4%. Besides, the AC50 under setting [2] is 20.6 µM [falling, single point]. In addition, the AC50 under setting [1] was 25.9 µM [falling, single point].

`Cc1ccccc1-c1nc(CS(=O)(=O)CC(=O)NC(C)c2ccccc2)c(C)o1` (configuration not stated): the cell number change is -8.4%. Moreover, under setting [1], the AC50 is 29.1 µM [rising, single point].

On to `CN(Cc1cccs1)S(=O)(=O)c1cccs1`, for which the cell number change is 1.22%. Moreover, the AC50 under setting [1] is 29.1 µM [falling, single point].

In the case of `CN(C)C(=O)/C=C\c1cn(-c2ccccc2)nc1-c1ccc2c(c1)OCCO2`, the cell number change was determined as 16.2%.

Consider `O=C(/C=C/c1ccc(Br)cc1)NC1CCCCCC1`, for which the cell number change was -16%. For the same compound, under setting [2], the AC50 was 6.51 µM [rising, partial curve]. Also, the AC50 under setting [1] was 1.3 µM [falling, partial curve].

Turning to `C=CCOc1cccc(/C=N/NC(=O)CN2CCCCC2)c1`, the cell number change was -2.7%.

`Cc1cc(C)c2nc(N3CCN(C)CC3)c(C#N)cc2c1`: the cell number change came out at 31.8%. Besides, the AC50 under setting [2] was 10.3 µM [rising, single point].
